# Where a protein sequence is shown, tags need not be part of it. For part of these data: For at least one entry, the source does not settle the construct or the ends of the probe. For part of these data: A negative result means that nothing was seen under these conditions.
# Experiments:
# Test in all cases: activity in cells
# CPP3-H6 (Artificial) = system: T1, CPP3-H6 (Artificial); details: 0.7 mM MgCl2, 5 mM Hepes, purified recombinant protein, protein details: C-terminal H6
# T1 sequence: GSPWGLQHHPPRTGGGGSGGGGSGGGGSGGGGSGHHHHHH
# CPP1-H6 (Artificial) = system: T2, CPP1-H6 (Artificial); details: indirect: luciferase expression in mouse dermis vs MB11-luc2 alone, 1 peptide:4 mRNA, 0.7 mM MgCl2, 5 mM Hepes, 160 mM NaCl; purified recombinant protein; protein details: C-terminal H6
# T2 sequence: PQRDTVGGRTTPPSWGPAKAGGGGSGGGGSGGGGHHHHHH
# CPP2-H6 (Artificial) = system: T3, CPP2-H6 (Artificial); details: 2 peptide:1 mRNA, 0.7 mM MgCl2, 5 mM Hepes, purified recombinant protein, protein details: C-terminal H6
# T3 sequence: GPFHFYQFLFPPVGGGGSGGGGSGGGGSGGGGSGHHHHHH
# [1] = system: T4, M12-H6 (muscle-penetrating peptide M12-spacer-hexahistidine) (Artificial); details: indirect: luciferase in mouse biceps femoris, complex with vs without chloroquine; 2.7-fold above MB8-luc2; purified recombinant protein; protein details: C-terminal H6; dose not given here
# T4 sequence: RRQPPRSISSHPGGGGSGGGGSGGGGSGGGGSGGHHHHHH
sequence,measurement,setting,value
GGGAAGCUUAAGCUUCCCAAAAAAGUCAGGCCAGAUUAAUGCUGCCACCGGAAGUUGAGUAGACGGUGCUGCCUGCGGCUCAACCCCAGGAGGACUGGGUGACCAAAGCUGCGAGGUGAUCCACGUAAGCCCUCAGAACCGUCUCGGAAGGAGGACCCCACGUGCUUUAGCCUCAAAGCCCAGUGUCAGACCACACUUUAAUGUGCCACUCUGCGGAGAGUGCAGUCUGCGAUAGUGCCCCAGGUGGACUGGGUUAACAAAGGCAAAACAUUACUGGCCGAAGCCGCUUGGAAUAAGGCCGGUGUGCGUUUGUCUAUAUGUUAUUUUCCACCAUAUUGCCGUCUUUUGGCAAUGUGAGGGCCCGGAAACCUGGCCCUGUCUUCUUGACGAGCAUUCCUAGGGGUCUUUCCCCUCUCGCCAAAGGAAUGCAAGGUCUGUUGAAUGUCGUGAAGGAAGCAGUUCCUCUGGAAGCUUCUUGAAGACAAACAACGUCUGUAGCGACCCUUUGCAGGCAGCGGAACCCCCCACCUGGCGACAGGUGCCUCUGCGGCCAAAAGCCACGUGUAUAAGAUACACCUGCAAAGGCGGCACAACCCCAGUGCCACGUUGUGAGUUGGAUAGUUGUGGAAAGAGUCAAAUGGCUCUCCUCAAGCGUAUUCAACAAGGGGCUGAAGGAUGCCCAGAAGGUACCCCAUUGUAUGGGAUCUGAUCUGGGGCCUCGGUGCACAUGCUUUACAUGUGUUUAGUCGAGGUUAAAAAACGUCUAGGCCCCCCGAACCACGGGGACGUGGUUUUCCUUUGAAAAACACGAUGAUAAU [MB8-luc2 mRNA 5'-UTR (no aptamer A)],functional effect of the aptamer,CPP3-H6 (Artificial); indirect: no significant effect on transfection of mRNA lacking aptamer A,not active
GGGAAGCUUAAGUGGUGAGGUAUAUUGGCGCCUUCGUGGAAUGUCAGUGCCUCACCAGCAUGCCUUCCCAAAAAAGUCAGGCCAGAUUAAUGCUGCCACCGGAAGUUGAGUAGACGGUGCUGCCUGCGGCUCAACCCCAGGAGGACUGGGUGACCAAAGCUGCGAGGUGAUCCACGUAAGCCCUCAGAACCGUCUCGGAAGGAGGACCCCACGUGCUUUAGCCUCAAAGCCCAGUGUCAGACCACACUUUAAUGUGCCACUCUGCGGAGAGUGCAGUCUGCGAUAGUGCCCCAGGUGGACUGGGUUAACAAAGGCAAAACAUUACUGGCCGAAGCCGCUUGGAAUAAGGCCGGUGUGCGUUUGUCUAUAUGUUAUUUUCCACCAUAUUGCCGUCUUUUGGCAAUGUGAGGGCCCGGAAACCUGGCCCUGUCUUCUUGACGAGCAUUCCUAGGGGUCUUUCCCCUCUCGCCAAAGGAAUGCAAGGUCUGUUGAAUGUCGUGAAGGAAGCAGUUCCUCUGGAAGCUUCUUGAAGACAAACAACGUCUGUAGCGACCCUUUGCAGGCAGCGGAACCCCCCACCUGGCGACAGGUGCCUCUGCGGCCAAAAGCCACGUGUAUAAGAUACACCUGCAAAGGCGGCACAACCCCAGUGCCACGUUGUGAGUUGGAUAGUUGUGGAAAGAGUCAAAUGGCUCUCCUCAAGCGUAUUCAACAAGGGGCUGAAGGAUGCCCAGAAGGUACCCCAUUGUAUGGGAUCUGAUCUGGGGCCUCGGUGCACAUGCUUUACAUGUGUUUAGUCGAGGUUAAAAAACGUCUAGGCCCCCCGAACCACGGGGACGUGGUUUUCCUUUGAAAAACACGAUGAUAAU [MB11-luc2 mRNA 5'-UTR carrying aptamer A],functional effect of the aptamer,CPP1-H6 (Artificial),5.4 fold
same,functional effect of the aptamer,"CPP2-H6 (Artificial); indirect: luciferase expression in mouse dermis vs MB11-luc2 alone, 160 mM NaCl",10.6 fold
same,functional effect of the aptamer,"CPP3-H6 (Artificial); indirect: luciferase expression in mouse dermis vs MB11-luc2 alone, 1 peptide:2 mRNA, 160 mM NaCl",9.2 fold
same,functional effect of the aptamer,[1],31 fold
GGGAAGCUUAAGUGUUCUUUUUGCAGAAGCUCAGAAUUGGUGAGGUAUAUUGGCGCCUUCGUGGAAUGUCAGUGCCUCACCAGCAUGCAAACGCUCAACUUUGGCAGAUCUACC [MB15-luc2 capped mRNA 5'-UTR carrying aptamer A],functional effect of the aptamer,"CPP2-H6 (Artificial); 5' cap, indirect: luciferase in mouse dermis vs MB15-luc2 alone",1.48 fold

# Reference: US20210214729
